Test system: monkey kidney cells (Vero)
Experiment: In vitro toxicity, Vero cells
Format: cell-based
Conditions: ratio of IC50:MIC
Procedure: Twenty six compounds (including 37, 59 and 109) were tested in an in vitro model of toxicity using monkey kidney cells (Vero) and human cervical cancer cells (HeLa) using methods well known to those skilled in the art. The data from this toxicity testing and the MIC data were used to calculate a selectivity index (SI), the ratio of IC50:MIC (Table 15). Selectivity Indexes were ranging from 1.76 to 16.67.

Row | Structure (SMILES) | SI (IC50:MIC)
1 | CC1(C)C2CCC(CNCCNCC(c3ccccc3)c3ccccc3)[C@@H]1C2 (stereo partly drawn) [Compound 37, N-(2,2-Diphenylethyl)-N′-(−)-cis-(myrtanyl)ethane-1,2-diamine] | 4.10
2 | CC(CNCC(c1ccccc1)c1ccccc1)NCC1CCC2C[C@@H]1C2(C)C (stereo partly drawn) [Compound 38, N-(−)-cis-(Myrtanyl)-N′-(2,2-diphenylethyl)propyl-1,2-diamine] | 5.28
3 | C[C@@H]1C2C[C@@H](C[C@H]1NCCNCC(c1ccccc1)c1ccccc1)C2(C)C [Compound 40, N-(2,2-Diphenylethyl)-N′-(1R,2R,3R,5S)-(−)-isopinocampheylethane-1,2-diamine] | 1.88
4 | CC1CCCC(NCCNC[C@@H]2CCC3C[C@@H]2C3(C)C)C1C (stereo partly drawn) [Compound 41, N-(−)-cis-(Myrtanyl)-N′-(2,3-dimethylcyclohexyl)ethane-1,2-diamine] | 2.05
5 | CC1(C)C2CCC(CNCCNC3CCCCCCC3)[C@@H]1C2 (stereo partly drawn) [Compound 57, N-(−)-cis-Myrtanyl-N′-(cyclooctyl)ethane-1,2-diamine] | 2.40
6 | C1CCCC(NCCNC2C3CC4CC(C3)CC2C4)CCC1 (stereo not shown) [Compound 58, N-(Cyclooctyl)-N′-(2-adamantyl)ethane-1,2-diamine] | 6.56
7 | C[C@@H]1[C@H]2C[C@@H](C[C@H]1NCCNC1CCCCCCC1)C2(C)C [Compound 59, N-(Cyclooctyl)-N′-(1R, 2R, 3R, 5S)-(−)-isopinocampheylethane-1,2-diamine] | 2.30
8 | C[C@@H]1C2C[C@@H](C[C@H]1NCCNCCC(c1ccccc1)c1ccccc1)C2(C)C [Compound 66, N-(3,3-Diphenylpropyl)-N′-(1R, 2R, 3R, 5S)-(−)-isopinocampheylethane-1,2-diamine] | 1.76
9 | COc1ccccc1CCNCCNC1C2CC3CC(C2)CC1C3 (stereo not shown) [Compound 73, N-(2-Adamantyl)-N′-[2-(2-methoxyphenyl)ethyl]ethane-1,2-diamine] | 6.48
10 | CCC1CCCCN1CCNC/C=C(\C)CCC=C(C)C (stereo not shown) [Compound 111, N-[2-(N′-Geranyl)aminoethyl]-2-ethylpiperidine] | 5.76
